The other results are listed elsewhere or left out.
Experiments:
Test in all cases: log2 fold change, soluble protein after heating vs DMSO (PISA); higher = thermal stabilisation; K562 cells, 10 uM, 30 min; active = over 0.2 and 3.5 SD of the protein, either way, in both replicates (recomputed)
[1] = compound: NC(=O)Nc1cc(-c2cccc(F)c2)sc1C(=O)N[C@H]1CCCNC1
Summary of the method: (§1)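 K562 cells at 2×10^6 cells/mL were treated for 30 min with 10 μM compound, and aliquots were heated for 3 min over 48°C-58°C before pooling. Extraction used PBS with 0.5% NP-40 at 4°C, and soluble protein was the supernatant after 21,000xg for 90 min, measured by TMTpro 16plex LC-MS/MS with channel sums equalised. Thermal stability values, relative to control samples and from duplicates, are log2 fold changes.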

Sequences of proteins named here, by UniProt entry; tags and fusion partners are left off. A change or cut given only in a name is not applied to a line headed by its entry.
UniProt Q00536: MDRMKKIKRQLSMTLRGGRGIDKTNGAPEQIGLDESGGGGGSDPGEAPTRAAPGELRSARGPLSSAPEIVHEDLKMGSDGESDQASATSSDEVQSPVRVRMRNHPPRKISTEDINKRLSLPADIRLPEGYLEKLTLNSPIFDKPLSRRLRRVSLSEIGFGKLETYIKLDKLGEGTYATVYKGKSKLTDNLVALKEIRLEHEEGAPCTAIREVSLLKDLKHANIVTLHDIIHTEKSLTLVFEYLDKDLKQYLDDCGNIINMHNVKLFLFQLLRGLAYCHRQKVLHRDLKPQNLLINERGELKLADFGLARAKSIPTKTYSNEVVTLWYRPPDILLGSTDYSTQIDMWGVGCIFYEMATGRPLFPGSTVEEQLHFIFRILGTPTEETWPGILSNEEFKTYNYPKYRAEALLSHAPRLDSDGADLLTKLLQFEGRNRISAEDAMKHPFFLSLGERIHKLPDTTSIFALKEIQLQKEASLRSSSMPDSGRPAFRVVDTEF
UniProt Q9UKJ5: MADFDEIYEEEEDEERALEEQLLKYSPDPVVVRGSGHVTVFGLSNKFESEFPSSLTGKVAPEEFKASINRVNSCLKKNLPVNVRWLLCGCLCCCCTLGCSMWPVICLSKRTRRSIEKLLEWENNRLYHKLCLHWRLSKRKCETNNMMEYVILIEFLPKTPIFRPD
UniProt Q9NYV4, whole entry, looked up: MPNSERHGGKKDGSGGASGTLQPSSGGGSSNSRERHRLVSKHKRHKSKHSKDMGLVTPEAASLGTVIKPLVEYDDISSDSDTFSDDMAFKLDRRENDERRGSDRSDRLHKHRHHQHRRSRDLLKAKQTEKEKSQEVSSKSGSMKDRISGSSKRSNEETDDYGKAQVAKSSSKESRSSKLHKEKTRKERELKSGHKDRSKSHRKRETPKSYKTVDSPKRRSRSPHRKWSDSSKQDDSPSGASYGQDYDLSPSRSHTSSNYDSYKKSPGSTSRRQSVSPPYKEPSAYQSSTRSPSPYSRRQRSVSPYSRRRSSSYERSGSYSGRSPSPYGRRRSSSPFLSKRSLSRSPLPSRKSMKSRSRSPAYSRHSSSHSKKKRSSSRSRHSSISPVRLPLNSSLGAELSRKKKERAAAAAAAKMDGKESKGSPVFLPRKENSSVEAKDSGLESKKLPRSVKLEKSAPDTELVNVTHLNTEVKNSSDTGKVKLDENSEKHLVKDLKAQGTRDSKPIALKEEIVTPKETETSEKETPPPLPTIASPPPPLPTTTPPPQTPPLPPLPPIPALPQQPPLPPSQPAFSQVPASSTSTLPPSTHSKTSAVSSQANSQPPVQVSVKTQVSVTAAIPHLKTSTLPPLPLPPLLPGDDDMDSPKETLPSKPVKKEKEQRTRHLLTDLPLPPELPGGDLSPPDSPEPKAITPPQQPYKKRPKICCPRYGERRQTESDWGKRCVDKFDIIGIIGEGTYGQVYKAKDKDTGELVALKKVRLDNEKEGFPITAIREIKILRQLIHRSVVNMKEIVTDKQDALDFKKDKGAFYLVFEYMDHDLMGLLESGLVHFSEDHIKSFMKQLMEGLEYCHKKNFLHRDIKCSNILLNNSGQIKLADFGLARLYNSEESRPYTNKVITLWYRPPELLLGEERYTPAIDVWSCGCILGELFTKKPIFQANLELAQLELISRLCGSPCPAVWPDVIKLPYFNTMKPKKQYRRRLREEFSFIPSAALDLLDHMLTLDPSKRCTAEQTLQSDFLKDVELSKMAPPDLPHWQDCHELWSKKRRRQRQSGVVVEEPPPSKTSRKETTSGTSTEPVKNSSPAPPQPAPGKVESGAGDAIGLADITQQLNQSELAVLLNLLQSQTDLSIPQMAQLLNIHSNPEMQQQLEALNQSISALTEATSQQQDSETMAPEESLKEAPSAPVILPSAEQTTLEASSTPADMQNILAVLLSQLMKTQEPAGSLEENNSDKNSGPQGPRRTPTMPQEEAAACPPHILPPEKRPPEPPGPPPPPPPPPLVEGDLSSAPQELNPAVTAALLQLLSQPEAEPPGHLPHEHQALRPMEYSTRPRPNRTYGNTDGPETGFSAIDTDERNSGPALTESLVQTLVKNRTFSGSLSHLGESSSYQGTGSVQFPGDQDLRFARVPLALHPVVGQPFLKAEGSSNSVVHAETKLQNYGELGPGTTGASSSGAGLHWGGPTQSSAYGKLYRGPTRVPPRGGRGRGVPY
UniProt Q6ZMG9: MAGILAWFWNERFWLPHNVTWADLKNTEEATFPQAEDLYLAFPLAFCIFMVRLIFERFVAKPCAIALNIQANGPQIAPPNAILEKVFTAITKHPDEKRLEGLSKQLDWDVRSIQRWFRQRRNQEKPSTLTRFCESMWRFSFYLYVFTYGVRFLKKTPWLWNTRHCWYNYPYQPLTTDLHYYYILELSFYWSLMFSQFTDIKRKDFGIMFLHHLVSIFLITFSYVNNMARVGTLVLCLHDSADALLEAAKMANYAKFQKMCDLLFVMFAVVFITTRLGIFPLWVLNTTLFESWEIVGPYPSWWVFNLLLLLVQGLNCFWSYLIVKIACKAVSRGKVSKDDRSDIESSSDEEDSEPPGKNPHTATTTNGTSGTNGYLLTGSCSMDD
UniProt Q9Y4F5: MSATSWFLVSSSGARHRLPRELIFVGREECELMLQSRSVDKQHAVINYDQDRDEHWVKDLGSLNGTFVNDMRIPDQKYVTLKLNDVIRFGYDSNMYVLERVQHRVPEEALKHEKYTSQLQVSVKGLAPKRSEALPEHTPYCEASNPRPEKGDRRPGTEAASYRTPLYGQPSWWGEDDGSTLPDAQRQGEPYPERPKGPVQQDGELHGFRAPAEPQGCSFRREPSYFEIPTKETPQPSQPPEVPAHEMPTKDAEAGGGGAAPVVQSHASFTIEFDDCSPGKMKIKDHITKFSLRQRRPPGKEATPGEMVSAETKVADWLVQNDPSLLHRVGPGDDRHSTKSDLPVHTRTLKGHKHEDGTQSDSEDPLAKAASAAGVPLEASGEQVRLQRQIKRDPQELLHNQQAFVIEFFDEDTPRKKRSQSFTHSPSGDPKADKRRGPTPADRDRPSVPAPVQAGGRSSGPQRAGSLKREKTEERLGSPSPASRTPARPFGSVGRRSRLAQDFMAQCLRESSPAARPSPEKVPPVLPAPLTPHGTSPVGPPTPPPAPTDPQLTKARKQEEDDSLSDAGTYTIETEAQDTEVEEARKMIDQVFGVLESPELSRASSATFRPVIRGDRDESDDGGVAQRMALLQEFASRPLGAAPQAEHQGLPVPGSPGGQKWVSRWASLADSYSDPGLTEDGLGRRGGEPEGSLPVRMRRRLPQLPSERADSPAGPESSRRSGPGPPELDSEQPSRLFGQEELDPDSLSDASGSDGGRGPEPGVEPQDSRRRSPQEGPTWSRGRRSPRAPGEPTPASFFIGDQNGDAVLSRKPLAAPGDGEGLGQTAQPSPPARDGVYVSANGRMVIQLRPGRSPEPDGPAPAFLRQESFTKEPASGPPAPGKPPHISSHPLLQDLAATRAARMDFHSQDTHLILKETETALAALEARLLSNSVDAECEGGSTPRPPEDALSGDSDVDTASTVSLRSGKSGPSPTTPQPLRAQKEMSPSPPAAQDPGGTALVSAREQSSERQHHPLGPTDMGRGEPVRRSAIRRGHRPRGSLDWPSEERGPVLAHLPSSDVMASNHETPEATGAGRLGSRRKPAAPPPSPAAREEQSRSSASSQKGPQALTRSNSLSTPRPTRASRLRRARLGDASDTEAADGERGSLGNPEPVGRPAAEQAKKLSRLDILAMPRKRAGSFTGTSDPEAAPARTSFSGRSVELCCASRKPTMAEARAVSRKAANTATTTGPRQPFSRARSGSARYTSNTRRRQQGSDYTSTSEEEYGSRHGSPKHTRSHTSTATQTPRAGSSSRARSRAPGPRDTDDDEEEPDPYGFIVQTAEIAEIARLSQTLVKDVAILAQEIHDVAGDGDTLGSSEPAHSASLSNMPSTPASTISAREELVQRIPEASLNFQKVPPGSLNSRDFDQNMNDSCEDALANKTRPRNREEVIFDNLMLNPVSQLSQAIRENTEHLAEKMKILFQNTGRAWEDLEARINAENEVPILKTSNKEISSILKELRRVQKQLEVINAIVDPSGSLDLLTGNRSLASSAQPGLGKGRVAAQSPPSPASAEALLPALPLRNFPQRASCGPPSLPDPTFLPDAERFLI
UniProt O14757: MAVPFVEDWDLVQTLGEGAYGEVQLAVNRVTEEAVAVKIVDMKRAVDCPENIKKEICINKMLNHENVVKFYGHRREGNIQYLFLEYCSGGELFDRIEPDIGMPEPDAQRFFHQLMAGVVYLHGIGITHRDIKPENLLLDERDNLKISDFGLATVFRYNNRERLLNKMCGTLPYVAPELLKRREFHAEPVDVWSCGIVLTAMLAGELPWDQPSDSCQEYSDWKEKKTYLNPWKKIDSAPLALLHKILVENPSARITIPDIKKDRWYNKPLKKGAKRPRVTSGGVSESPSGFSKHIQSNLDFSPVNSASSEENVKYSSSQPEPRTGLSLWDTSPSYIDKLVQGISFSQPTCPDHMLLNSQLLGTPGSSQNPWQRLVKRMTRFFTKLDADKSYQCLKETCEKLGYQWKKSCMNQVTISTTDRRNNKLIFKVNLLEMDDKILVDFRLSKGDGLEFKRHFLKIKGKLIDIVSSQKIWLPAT
UniProt Q9NZZ3: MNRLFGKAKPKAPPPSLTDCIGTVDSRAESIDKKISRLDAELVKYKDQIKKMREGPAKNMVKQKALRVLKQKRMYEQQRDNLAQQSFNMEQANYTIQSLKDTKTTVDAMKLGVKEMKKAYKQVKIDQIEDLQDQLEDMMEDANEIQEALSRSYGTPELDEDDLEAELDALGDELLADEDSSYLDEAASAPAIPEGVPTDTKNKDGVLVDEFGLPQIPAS
UniProt Q99618: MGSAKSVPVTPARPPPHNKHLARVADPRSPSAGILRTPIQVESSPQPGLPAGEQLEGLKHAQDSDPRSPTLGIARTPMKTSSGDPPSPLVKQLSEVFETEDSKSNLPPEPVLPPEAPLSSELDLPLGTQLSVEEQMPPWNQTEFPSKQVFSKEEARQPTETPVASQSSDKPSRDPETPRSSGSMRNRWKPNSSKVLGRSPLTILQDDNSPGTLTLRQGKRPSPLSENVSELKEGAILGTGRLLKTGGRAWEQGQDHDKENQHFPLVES
UniProt O00748: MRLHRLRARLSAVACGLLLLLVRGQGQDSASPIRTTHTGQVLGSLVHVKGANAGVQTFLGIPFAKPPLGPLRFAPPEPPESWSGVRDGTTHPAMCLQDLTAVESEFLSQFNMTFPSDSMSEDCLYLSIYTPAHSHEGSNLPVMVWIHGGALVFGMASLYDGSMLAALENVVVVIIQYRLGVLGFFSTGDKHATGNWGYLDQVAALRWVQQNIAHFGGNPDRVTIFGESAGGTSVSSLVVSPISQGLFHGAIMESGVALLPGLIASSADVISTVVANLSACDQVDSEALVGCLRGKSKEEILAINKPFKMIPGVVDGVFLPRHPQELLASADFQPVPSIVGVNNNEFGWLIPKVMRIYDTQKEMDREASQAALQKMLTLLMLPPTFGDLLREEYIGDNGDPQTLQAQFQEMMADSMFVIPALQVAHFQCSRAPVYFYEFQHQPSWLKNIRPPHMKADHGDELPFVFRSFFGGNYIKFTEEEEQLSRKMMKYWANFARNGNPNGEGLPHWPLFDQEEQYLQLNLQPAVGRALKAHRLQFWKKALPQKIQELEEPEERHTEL
UniProt Q8N2Z9: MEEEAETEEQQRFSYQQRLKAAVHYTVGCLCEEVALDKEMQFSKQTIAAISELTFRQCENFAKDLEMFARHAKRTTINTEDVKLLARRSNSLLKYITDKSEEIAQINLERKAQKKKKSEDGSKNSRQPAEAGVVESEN
UniProt Q96JM3: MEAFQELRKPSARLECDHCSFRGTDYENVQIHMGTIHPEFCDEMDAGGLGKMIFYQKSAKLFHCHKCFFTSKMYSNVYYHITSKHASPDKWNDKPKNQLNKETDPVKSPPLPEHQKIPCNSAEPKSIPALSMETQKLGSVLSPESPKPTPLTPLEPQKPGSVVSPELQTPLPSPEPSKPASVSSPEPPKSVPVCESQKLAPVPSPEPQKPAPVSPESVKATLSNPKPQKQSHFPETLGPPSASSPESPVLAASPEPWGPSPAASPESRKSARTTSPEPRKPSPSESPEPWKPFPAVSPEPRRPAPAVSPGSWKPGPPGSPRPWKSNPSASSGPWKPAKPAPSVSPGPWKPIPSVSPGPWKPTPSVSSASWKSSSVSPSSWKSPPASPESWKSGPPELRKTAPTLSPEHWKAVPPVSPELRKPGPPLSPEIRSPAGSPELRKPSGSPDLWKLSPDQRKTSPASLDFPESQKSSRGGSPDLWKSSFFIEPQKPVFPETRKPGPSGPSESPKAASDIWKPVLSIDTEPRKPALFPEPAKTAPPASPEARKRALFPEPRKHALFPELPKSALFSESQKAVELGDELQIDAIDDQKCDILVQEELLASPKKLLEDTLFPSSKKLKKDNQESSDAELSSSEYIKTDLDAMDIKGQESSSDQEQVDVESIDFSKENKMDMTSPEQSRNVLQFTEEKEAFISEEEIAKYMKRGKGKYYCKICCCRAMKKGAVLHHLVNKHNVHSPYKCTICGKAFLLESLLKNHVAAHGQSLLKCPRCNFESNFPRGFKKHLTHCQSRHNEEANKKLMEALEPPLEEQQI

[2] = compound: NC(=O)c1cnc(N[C@@H]2CCCC[C@@H]2N)nc1Nc1cccc(-n2nccn2)c1
Summary of the method: as §1

[3] = compound: NC1(c2ccc(-c3nc4ccn5c(=O)[nH]nc5c4cc3-c3ccccc3)cc2)CCC1
Summary of the method: as §1

[4] = compound: NCC(=O)Nc1ccc(-n2nc(C(F)(F)F)cc2-c2ccc3c(ccc4ccccc43)c2)cc1
Summary of the method: as §1

entinostat = compound: Nc1ccccc1NC(=O)c1ccc(CNC(=O)OCc2cccnc2)cc1 [entinostat]
Summary of the method: as §1

vorinostat = compound: O=C(CCCCCCC(=O)Nc1ccccc1)NO [vorinostat]
Summary of the method: as §1

citarinostat = compound: O=C(CCCCCCNC(=O)c1cnc(N(c2ccccc2)c2ccccc2Cl)nc1)NO [citarinostat]
Summary of the method: as §1

silmitasertib = compound: O=C(O)c1ccc2c(c1)nc(Nc1cccc(Cl)c1)c1ccncc12 [silmitasertib]
Summary of the method: as §1

[5] = compound: O=C1NC(=O)C(c2cnc3ccccn23)=C1c1cn2c3c(cc(F)cc13)CN(C(=O)N1CCCCC1)CC2
Summary of the method: as §1

[6] = compound: c1cc(OCCN2CCCCC2)cc(-c2n[nH]c3ccc(-c4nnc[nH]4)cc23)c1
Summary of the method: as §1

| Target | log2 fold change [1] | log2 fold change [2] | log2 fold change [3] | log2 fold change [4] | log2 fold change (entinostat) | log2 fold change (vorinostat) | log2 fold change (citarinostat) | log2 fold change (silmitasertib) | log2 fold change [5] | log2 fold change [6] |
| --- | --- | --- | --- | --- | --- | --- | --- | --- | --- | --- |
| CDK16 isoform 2 (UniProt Q00536) | inactive: -0.07 | inactive: -0.091 | inactive: -0.104 | inactive: -0.061 | inactive: -0.041 | inactive: -0.044 | inactive: 0.061 | inactive: 0.201 | active: 0.845 | inactive: -0.006 |
| CDCP1 (UniProt Q9H5V8) | inactive: -0.086 | inactive: 0.061 | inactive: 0.105 | inactive: 0.066 | inactive: -0.152 | inactive: -0.041 | inactive: -0.056 | inactive: -0.008 | inactive: -0.039 | inactive: -0.174 |
| CHKB (UniProt Q9Y259) | inactive: 0.123 | inactive: 0.097 | inactive: -0.023 | inactive: -0.236 | inactive: -0.025 | inactive: 0.105 | inactive: 0.066 | inactive: -0.033 | inactive: -0.002 | inactive: 0.013 |
| CEPT1 (UniProt Q9Y6K0) | inactive: -0.065 | inactive: -0.101 | inactive: -0.215 | inactive: -0.156 | inactive: 0.065 | inactive: -0.078 | inactive: -0.023 | inactive: -0.014 | inactive: -0.054 | inactive: -0.085 |
| CFAP298 (UniProt P57076) | inactive: -0.077 | inactive: -0.085 | inactive: 0.056 | inactive: -0.089 | inactive: 0.088 | inactive: -0.018 | inactive: -0.043 | inactive: 0.08 | inactive: 0.011 | inactive: -0.047 |
| CHIC2 (UniProt Q9UKJ5) | inactive: -0.036 | inactive: -0.149 | inactive: -0.044 | inactive: -0.096 | inactive: 0.039 | inactive: -0.041 | inactive: 0.044 | inactive: 0.076 | inactive: -0.017 | inactive: -0.146 |
| CDK8 (UniProt P49336) | inactive: -0.038 | inactive: 0.011 | inactive: 0.036 | inactive: 0.014 | inactive: -0.152 | inactive: 0.038 | inactive: -0.002 | inactive: 0.175 | inactive: 0.036 | inactive: -0.019 |
| CDK12 (UniProt Q9NYV4) | inactive: -0.002 | inactive: 0.005 | inactive: 0.06 | inactive: 0.01 | inactive: 0.005 | inactive: 0.089 | inactive: -0.051 | inactive: -0.081 | inactive: 0.179 | inactive: -0.242 |
| CDC73 (UniProt Q6P1J9) | inactive: -0.362 | inactive: -0.077 | inactive: 0.295 | inactive: -0.137 | inactive: -0.286 | inactive: -0.213 | inactive: -0.219 | inactive: 0.088 | inactive: -0.556 | inactive: -0.275 |
| CDCA5 (UniProt Q96FF9) | inactive: -0.066 | inactive: -0.02 | inactive: 0.024 | inactive: -0.009 | inactive: 0.069 | inactive: 0.017 | inactive: 0.031 | inactive: 0.069 | inactive: -0.041 | inactive: -0.059 |
| CHMP3 (UniProt Q9Y3E7) | inactive: 0.043 | inactive: -0.047 | inactive: -0.09 | inactive: -0.107 | inactive: -0.027 | inactive: 0.018 | inactive: 0.098 | inactive: 0.018 | inactive: -0.088 | inactive: 0.004 |
| CERS6 isoform 2 (UniProt Q6ZMG9) | inactive: -0.122 | inactive: -0.04 | inactive: -0.04 | inactive: 0.008 | inactive: -0.013 | inactive: -0.018 | inactive: -0.019 | inactive: -0.02 | inactive: 0.032 | inactive: -0.083 |
| CEP170B (UniProt Q9Y4F5) | inactive: 0.019 | inactive: 0.022 | inactive: -0.002 | inactive: 0.033 | inactive: 0.029 | inactive: -0.021 | inactive: -0.062 | inactive: -0.031 | inactive: 0.082 | inactive: -0.294 |
| CHAC2 (UniProt Q8WUX2) | inactive: 0.022 | inactive: -0.019 | inactive: -0.008 | inactive: -0.028 | inactive: -0.017 | inactive: -0.016 | inactive: -0.232 | inactive: 0.022 | inactive: -0.03 | active: 0.419 |
| CDK9 isoform 2 (UniProt P50750) | inactive: -0.05 | inactive: -0.038 | inactive: -0.057 | inactive: 0.22 | inactive: 0.005 | inactive: 0.102 | inactive: -0.002 | inactive: -0.015 | inactive: 0.152 | inactive: -0.084 |
| CFH (UniProt P08603) | inactive: -0.053 | inactive: -0.012 | inactive: -0.031 | inactive: 0.025 | inactive: -0.079 | inactive: -0.157 | inactive: -0.058 | inactive: 0.012 | inactive: 0.013 | inactive: 0.082 |
| CHEK1 (UniProt O14757) | active: 0.338 | inactive: -0.225 | inactive: -0.209 | inactive: -0.032 | inactive: 0.02 | inactive: 0.037 | inactive: 0.094 | inactive: -0.011 | inactive: -0.064 | active: -0.276 |
| CHMP5 (UniProt Q9NZZ3) | inactive: -0.044 | inactive: -0.013 | inactive: -0.103 | inactive: -0.044 | inactive: -0.014 | inactive: -0.028 | inactive: 0.012 | inactive: -0.023 | inactive: -0.016 | inactive: 0.012 |
| CHD5 (UniProt Q8TDI0) | inactive: 0.025 | inactive: -0.11 | inactive: 0.029 | inactive: -0.016 | inactive: 0.061 | inactive: 0.09 | inactive: 0.13 | inactive: 0.074 | inactive: -0.368 | inactive: -0.077 |
| CDCA3 (UniProt Q99618) | inactive: -0.045 | inactive: -0.034 | inactive: 0.024 | inactive: 0.027 | inactive: -0.008 | inactive: -0.054 | inactive: 0.007 | inactive: 0.022 | inactive: -0.005 | inactive: -0.045 |
| CDK13 (UniProt Q14004) | inactive: -0.032 | inactive: -0.007 | inactive: -0.063 | inactive: 0.042 | inactive: 0 | inactive: 0.018 | inactive: 0.013 | inactive: -0.018 | inactive: 0.035 | inactive: -0.196 |
| CHD3 isoform 3 (UniProt Q12873) | inactive: 0.023 | inactive: -0.152 | inactive: -0.113 | inactive: -0.013 | inactive: 0.036 | inactive: 0.101 | inactive: 0.057 | inactive: 0.154 | inactive: 0.057 | inactive: -0.101 |
| CDC42BPA isoform 6 (UniProt Q5VT25) | inactive: -0.325 | inactive: -0.334 | inactive: -0.06 | inactive: -0.003 | inactive: 0.012 | inactive: 0.051 | inactive: 0.115 | inactive: 0.11 | inactive: -0.041 | inactive: -0.203 |
| CES2 isoform 4 (UniProt O00748) | inactive: 0.116 | inactive: 0.017 | inactive: -0.051 | inactive: 0.095 | inactive: -0.083 | inactive: -0.017 | inactive: -0.083 | inactive: 0.076 | inactive: 0.027 | inactive: -0.016 |
| CHCHD3 (UniProt Q9NX63) | inactive: -0.042 | inactive: -0.053 | inactive: -0.055 | inactive: -0.029 | inactive: -0.009 | inactive: -0.049 | inactive: -0.034 | inactive: -0.021 | inactive: -0.052 | inactive: 0.009 |
| CDK5RAP3 isoform 4 (UniProt Q96JB5) | inactive: -0.025 | inactive: -0.029 | inactive: -0.092 | inactive: -0.097 | inactive: 0.056 | inactive: 0.04 | inactive: 0.065 | inactive: -0.004 | inactive: -0.04 | inactive: 0.019 |
| CENPS (UniProt Q8N2Z9) | inactive: -0.054 | inactive: 0.129 | inactive: -0.036 | inactive: -0.064 | inactive: 0.025 | inactive: 0.031 | inactive: 0.003 | inactive: -0.071 | inactive: 0.008 | inactive: 0.014 |
| CHAF1B (UniProt Q13112) | inactive: -0.009 | inactive: -0.042 | inactive: -0.004 | inactive: -0.02 | inactive: -0.033 | inactive: -0.018 | inactive: -0.001 | inactive: 0.011 | inactive: -0.017 | inactive: -0.026 |
| CHAMP1 (UniProt Q96JM3) | inactive: -0.034 | inactive: -0.136 | inactive: 0.007 | inactive: -0.031 | inactive: 0.001 | inactive: 0.137 | inactive: -0.007 | inactive: -0.02 | inactive: -0.051 | inactive: -0.078 |

In a second layout: results already given
Target,log2 fold change [1],log2 fold change [2],log2 fold change [3],log2 fold change [4],log2 fold change (entinostat),log2 fold change (vorinostat),log2 fold change (citarinostat),log2 fold change (silmitasertib),log2 fold change [5],log2 fold change [6]
CDK9 isoform 2 (UniProt P50750),inactive: -0.05,inactive: -0.038,inactive: -0.057,inactive: 0.22,inactive: 0.005,inactive: 0.102,inactive: -0.002,inactive: -0.015,inactive: 0.152,inactive: -0.084
CFH (UniProt P08603),inactive: -0.053,inactive: -0.012,inactive: -0.031,inactive: 0.025,inactive: -0.079,inactive: -0.157,inactive: -0.058,inactive: 0.012,inactive: 0.013,inactive: 0.082
